We go through 2 substances from article doi:10.1101/220541.

Assay [1] deals with T1, full length CRWN1, Gal4 fusion for yeast two-hybrid (Arabidopsis thaliana) (UniProt F4HRT5).
T1 sequence: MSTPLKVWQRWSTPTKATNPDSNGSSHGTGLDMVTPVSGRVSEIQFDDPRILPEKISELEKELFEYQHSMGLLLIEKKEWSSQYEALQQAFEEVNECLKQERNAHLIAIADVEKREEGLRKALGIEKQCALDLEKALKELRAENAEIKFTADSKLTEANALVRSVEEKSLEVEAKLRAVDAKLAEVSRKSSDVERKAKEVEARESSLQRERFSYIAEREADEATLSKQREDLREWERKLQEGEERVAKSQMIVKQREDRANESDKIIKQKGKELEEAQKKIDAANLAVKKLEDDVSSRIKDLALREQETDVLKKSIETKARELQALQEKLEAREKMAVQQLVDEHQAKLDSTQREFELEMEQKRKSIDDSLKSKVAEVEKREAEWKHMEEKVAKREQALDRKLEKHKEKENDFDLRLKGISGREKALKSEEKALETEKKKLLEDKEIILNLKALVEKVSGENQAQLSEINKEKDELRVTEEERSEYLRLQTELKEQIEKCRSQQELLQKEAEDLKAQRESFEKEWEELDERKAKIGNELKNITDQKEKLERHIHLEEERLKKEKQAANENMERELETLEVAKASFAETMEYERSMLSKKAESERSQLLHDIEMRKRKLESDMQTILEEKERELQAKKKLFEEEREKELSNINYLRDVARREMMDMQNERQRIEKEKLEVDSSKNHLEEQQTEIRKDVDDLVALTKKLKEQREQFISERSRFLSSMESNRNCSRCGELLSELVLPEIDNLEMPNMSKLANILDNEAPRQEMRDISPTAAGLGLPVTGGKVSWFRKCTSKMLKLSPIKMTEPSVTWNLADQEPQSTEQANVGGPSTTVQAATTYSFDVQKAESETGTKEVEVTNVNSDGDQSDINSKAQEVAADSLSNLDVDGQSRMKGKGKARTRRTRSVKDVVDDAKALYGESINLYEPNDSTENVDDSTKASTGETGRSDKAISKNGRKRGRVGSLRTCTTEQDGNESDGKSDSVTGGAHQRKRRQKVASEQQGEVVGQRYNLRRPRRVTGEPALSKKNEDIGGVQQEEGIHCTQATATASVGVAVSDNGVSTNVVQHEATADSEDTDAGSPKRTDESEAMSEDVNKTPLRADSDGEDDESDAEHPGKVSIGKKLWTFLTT
The assay is described as follows: two-hybrid.

Assay [2] addresses T2, CRWN1, fluorophore fusion for FRET-APB (Arabidopsis thaliana) (UniProt F4HRT5).
T2 sequence: T1 sequence
The assay can be described thus: FRET or BRET.

These are yes or no findings as the source states them, for the method shown. A result given as binding can be weak or reduced; the word gives no strength. Tags and fused reporters may be left off the sequences shown. For some assays here: Binding seen in cells or lysates may run through a third protein.

For “C-terminal PWO1 fragment (634 - 769 aa), Gal4 fusion for yeast two-hybrid (Arabidopsis thaliana) (domain or fragment)”, the binding entry in assay [1] was “binds”. “C-terminal PWO1 fragment (634 - 769 aa), fluorophore fusion for FRET-APB (Arabidopsis thaliana) (domain or fragment)”: the binding entry in assay [2] is given as “binds”.
